# Results as given in PubChem BioAssay AID1671190 (National Center for Advancing Translational Sciences (NCATS), 2021).
# By UniProt entry, the sequences of proteins in these tests, tags left out. Where a name states a change or a piece, a line headed by the entry shows the natural chain unless it says otherwise.
# UniProt P18054: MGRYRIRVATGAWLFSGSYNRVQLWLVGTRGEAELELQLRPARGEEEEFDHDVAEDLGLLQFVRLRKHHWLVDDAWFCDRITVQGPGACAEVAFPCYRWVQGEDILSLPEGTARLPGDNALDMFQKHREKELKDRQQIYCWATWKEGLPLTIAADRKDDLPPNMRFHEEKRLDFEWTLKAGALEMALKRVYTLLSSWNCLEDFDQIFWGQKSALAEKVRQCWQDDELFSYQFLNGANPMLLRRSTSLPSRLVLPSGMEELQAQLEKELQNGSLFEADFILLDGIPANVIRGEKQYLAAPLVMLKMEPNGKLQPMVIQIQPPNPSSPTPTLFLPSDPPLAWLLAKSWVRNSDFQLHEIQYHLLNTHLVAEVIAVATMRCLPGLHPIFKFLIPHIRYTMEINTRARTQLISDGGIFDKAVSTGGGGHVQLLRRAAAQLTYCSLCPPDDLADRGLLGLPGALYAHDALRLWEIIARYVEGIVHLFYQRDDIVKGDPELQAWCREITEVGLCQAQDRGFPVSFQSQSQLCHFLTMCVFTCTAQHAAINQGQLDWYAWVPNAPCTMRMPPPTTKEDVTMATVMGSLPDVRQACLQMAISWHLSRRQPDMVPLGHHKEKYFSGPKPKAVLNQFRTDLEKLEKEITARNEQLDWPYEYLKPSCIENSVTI
# Out of some 580,000 compounds screened, about 6,100 (1.1%) were called active. This list was built around the results that the source calls inconclusive (neither active nor inactive); the mix of calls is not that of the screen. Calls follow the shape of the dose curve; as a rule, active = well fitted inhibition curve with a large enough effect; inconclusive = small, poorly fitted or top-dose-only effect, or another doubt; inactive = no such curve, though single readings can be large or run the other way. Potencies beside an inconclusive call are fits to weak or partial responses and may not hold up.
# Biological target: Polyunsaturated fatty acid lipoxygenase ALOX12 (Homo sapiens) (UniProt P18054)
# Assay: Primary qHTS assay for inhibitors of human arachidonate 12S-lipoxygenase (ALOX12): Round 2
# Details: purified 12hLO, xylenol orange hydroperoxide absorbance; activity change, negative = inhibition: at 108 µM (top of the series) unless noted
# Summary of the method: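 Hydroperoxide product was detected by ferrous iron/xylenol orange as the 573 to 405 nm absorbance ratio. Arachidonic acid at 40 uM (final) was turned over for 30 min at room temperature by 150 nM human 12hLO, pH 7.0 Hepes buffer, after 15 min compound preincubation.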
# % is scaled to controls: 0 for no effect and ±100 for the full control effect; potency is read from the fitted curve at half-maximal effect.
Compound,Potency,"activity change, negative = inhibition"
COCC(=O)N1CCCN(C(=O)CSc2ccncc2)CC1,"inconclusive: 17.8 µM [inhibitor, full curve]",
CCn1c(SCC(=O)N(C)Cc2ccc(-c3ccc(Cl)cc3)o2)nnc1C1CC1,"inconclusive: 50.1 µM [inhibitor, partial curve, poor fit]",
Cc1ccc(S(=O)(=O)/N=C(/NC(=S)Nc2c(C)n(C)n(-c3ccccc3)c2=O)c2ccccc2)cc1,active: 28.2 µM,
N#Cc1ccccc1Cn1c(=O)n(Cc2ccc(C(=O)NC3CCN(Cc4ccccc4)CC3)cc2)c(=O)c2ccccc21,"inconclusive: 89.1 µM [inhibitor, partial curve, poor fit]",
CNC(=O)[C@@H](c1ccc(OC)cc1)N1CCC[C@H]1C(=O)NC1CCCC1,"inconclusive: 28.2 µM [inhibitor, partial curve, poor fit]",
Cc1cccc(-c2nnc(SCC#N)n2C)c1,inactive,
COc1cc(OC)c(N(C)S(=O)(=O)c2cccc(C(=O)NC(C)C3CC4CCC3C4)c2)cc1Cl (centres undefined),inactive,
COCCNC(=O)C1(C)Cc2c(-c3ccc(NC(C)=O)cc3)ccnc2O1 (centres undefined),inactive,
CC1CCC(NC(=O)c2cc3ccccc3c(Cl)n2)CC1 (centres undefined),active: 39.8 µM,
CCOC(=O)Cn1cc(CN2CCS(=O)(=O)N(Cc3ccc(F)cc3)C(C(=O)OC)C2)nn1 (centres undefined),"inconclusive: 39.8 µM [inhibitor, partial curve, poor fit]",
Fc1ccc(-c2ccc(CNCCSc3nnnn3-c3ccccc3)o2)cc1Cl,"inconclusive: 50.1 µM [inhibitor, partial curve, poor fit]",
CCCCn1c(CCNC(=O)CCC)nc2ccccc21,inactive,
CNC(=S)Nc1ccc(OC(F)(F)F)cc1,inactive,
O=C1c2cccc3c([N+](=O)[O-])ccc(c23)C(=O)N1c1ccc(Cl)cn1,inactive,
CCOC(=O)c1sc(Nc2ccc(Br)cc2)nc1C,"inconclusive: 2.51 µM [inhibitor, full curve, poor fit]",
O=C(Nc1c(C(=O)Nc2cccc(F)c2)oc2ccccc12)c1cc2ccccc2o1,inactive,
CCc1cc2c(NCc3ccco3)ncnc2s1,"inconclusive: 31.6 µM [inhibitor, single point]",
Cc1ccc(NC(=O)c2ccc3c(c2)NC(=O)CS3)cc1,inactive,
O=C(c1cc2ccccc2o1)N1CCC2(CCCN(Cc3ccccc3F)C2)C1 (centres undefined),"inconclusive: 50.1 µM [inhibitor, partial curve]",
Cc1ccc(OCCC(=O)OCC(=O)NC(=O)c2ccccc2)cc1,"inconclusive: 89.1 µM [inhibitor, partial curve, poor fit]",
COc1ccc(OCc2cccc(C(=O)Nc3ccc(CN4CCCCC4)cc3)c2)cc1,inactive,
CCCNC(=O)c1ccc(N2CCC3(CC2)CC(c2ccccc2)=NO3)c(NC(=O)c2ccccc2)c1,inactive,

Compound,Potency,"activity change, negative = inhibition"
CCNc1c(NC(=O)NCc2ccc(C)cc2)c(=O)oc2ccccc12,"inconclusive: 44.7 µM [inhibitor, partial curve, poor fit]",
Cc1nc(C)c(C(=O)N2CCC(c3noc(-c4cnccn4)n3)C2)s1 (centres undefined),"inconclusive: 1.12 µM [inhibitor, full curve]",
O=C(O)c1ccc(Br)cc1F,"inconclusive: 56.2 µM [inhibitor, partial curve, poor fit]",
Oc1c(C(c2ccc(Cl)cc2Cl)N2CCN(Cc3ccccc3)CC2)sc2nc(-c3ccco3)nn12 (centres undefined),"inconclusive: 50.1 µM [inhibitor, partial curve, poor fit]",
CCCNC(=O)C1(C)CCCN(Cc2ccc(C#N)cc2)C1 (centres undefined),"inconclusive: 89.1 µM [inhibitor, single point]",
COc1ccc2nc(C)cc(N/N=C/c3ccc(F)cc3)c2c1,"inconclusive: 25.1 µM [inhibitor, single point]",
CC(C)c1ccc(NC(=S)Nc2ccc3[nH]c(=O)[nH]c3c2)cc1,"inconclusive: 44.7 µM [inhibitor, partial curve, poor fit]",
OC(c1ccccc1)c1nc(/C=C/c2ccccc2)cs1 (centres undefined),"inconclusive: 89.1 µM [inhibitor, single point]",
COc1cc(NC(=S)NC(=O)c2cc(C)cc(C)c2)ccc1NC(=O)c1cccs1,"inconclusive: 7.94 µM [inhibitor, partial curve, poor fit]",
O=C(CC(O)(C(F)(F)F)C(F)(F)F)Nc1ccc(Cl)c(Cl)c1,"inconclusive: 50.1 µM [inhibitor, partial curve, poor fit]",
Cn1c(SCC(=O)c2ccccc2)nnc1-c1ccco1,"inconclusive: 31.6 µM [inhibitor, single point]",
Cc1cc(Cl)ccc1OCC(=O)OCC(=O)Nc1ccc(Cl)cn1,"inconclusive: 56.2 µM [inhibitor, partial curve, poor fit]",
COc1cccc(N2C(=O)NC(=NC3CCCCC3)C23CCCN(CCC(C)C)C3)c1 (centres undefined),,inactive: 9.97% [at 6.33 µM]
Cc1ccc(C(=O)c2coc3ccc(O)c(Cl)c23)cc1,"inconclusive: 100 µM [inhibitor, single point]",
CNC(=O)[C@H]1C[C@H](Oc2cccnc2)CN1C(=O)Nc1ccc2c(c1)OCCO2,inactive,
O=C(c1ccc(Br)cc1)N1CCN(c2ncccn2)CC1,"inconclusive: 126 µM [inhibitor, single point]",
CC(C)(Oc1nn(Cc2cccc(Cl)c2)c2ccccc12)C(=O)N1CCOCC1,"inconclusive: 56.2 µM [inhibitor, partial curve, poor fit]",
COc1ccc(NC(=O)c2ccc3c(c2)CCCC3)cc1,"inconclusive: 89.1 µM [inhibitor, single point]",
CCCCOc1ccc(/C=C2\CCc3cc(OC)ccc3C2=O)cc1OCC,inactive,
O=[N+]([O-])c1cccc(Nc2nc(-c3ccccc3)nc3ccccc23)c1,inactive,
Cc1coc(=N)n1CC(=O)c1ccc(Cl)cc1,"inconclusive: 50.1 µM [inhibitor, partial curve, poor fit]",
COc1ccc(C(=O)OCc2c(-c3cccc(OC)c3)ncc3ccccc23)cc1,"inconclusive: 50.1 µM [inhibitor, partial curve, poor fit]",

# Two compounds picked at random from those above, as already listed:
Compound,Potency,"activity change, negative = inhibition"
O=C(c1ccc(Br)cc1)N1CCN(c2ncccn2)CC1,"inconclusive: 126 µM [inhibitor, single point]",
Cc1coc(=N)n1CC(=O)c1ccc(Cl)cc1,"inconclusive: 50.1 µM [inhibitor, partial curve, poor fit]",
